Measured values from patent US8865124B2, “Probe reagent for measuring oxidative stress” (Japan Science and Technology Agency, priority 2008, dated 2014).
For at least one compound, name, drawing or mass did not settle the structure.

Columns and labels:
[1] = tested on: HeLa cells expressing the probe reagent mKO2-Nrf2—100-T2A-Keap1; test: Evaluation of a probe reagent by imaging of a cell (mKO2 fluorescence, time-lapse microscope); format: cell-based, human; settings: DEM 100 μM, medium exchanged 15 hours after addition; FIG. 4
Procedure: The prepared cDNA was transfected into HeLa cells that were cultured on a glass bottom dish by using FuGENE HD (manufactured by Roche Applied Science). The medium was replaced by the fresh medium 12 hours after the transfection. […] This microscope was equipped with a cooled CCD camera so that fluorescent images of a cell were able to be captured over time.
In order to verify that the constructed probe reagent responded correctly to oxidative stress as intended, diethylmaleate (DEM), which is an oxidative stress inducer, was added at a concentration of 100 μM, and the fluorescent intensity of mKO2 (ex; BP520-540HQ, em; BP555-600HQ) was measured. […] When ethanol, a solvent, was added at 0.1% as a control, the fluorescent intensity of mKO2 was not increased.
In order to verify that this probe reagent was degraded by a proteasome in a cell under conditions without being exposed to oxidative stress, an experiment using a proteasome inhibitor, MG132, was carried out. […] In contrast, after dimethylsulfoxide (DMSO), a solvent, was added at 0.1% as a control, the fluorescent intensity of mKO2 was not increased (FIG. 5).

[2] = tested on: mKO2-Nrf2 fusion molecule in HeLa cells; test: Evaluation of a probe reagent by Western blotting using an anti-Nrf2 antibody; format: cell-based, human; settings: DEM 100 μM, 8 hours, versus 0.1% ethanol; FIG. 6
Procedure: First, to confirm that this probe reagent was separated into an mKO2-Nrf2 fusion molecule and Keap1 by the T2A peptide in a cell, the following experiments were performed. The cDNA, which was prepared using FuGENE® HD (Roche Applied Science Inc.), was transfected into HeLa cells cultured on a 35-mm dish. The medium was replaced by the fresh medium 12 hours after the transfection. After the 12 hours, DEM was added at a concentration of 100 μM, and ethanol was added at 0.1% as a control. The cells were cultured for further 8 hours. After that, Western blotting was conducted by using an anti-Nrf2 antibody (Santa Cruz Inc.). Both in the case of adding DEM and the case of adding ethanol, the band of the mKO2-Nrf2 fusion molecule was detected, but the band of the probe reagent comprising linked Keap1 was hardly observed.
Next, the fact that this probe reagent was degraded by a proteasome in a cell was confirmed by performing Western blotting. A proteasome inhibitor, MG132, was added at a concentration of 10 μM to HeLa cells that had been cultured in a similar manner. DMSO was added at 0.1% to control cells as well.

## CCOC(=O)/C=C\C(=O)OCC [DEM, diethylmaleate]
[1]
  fluorescent intensity of mKO2 after the added DEM was washed away: decreased to the baseline state
[2]
  band of the mKO2-Nrf2 fusion molecule (amount of probe reagent): strong band was detected compared to the case of adding ethanol
